{"source": "patent US5962424A", "about": "“Methods and compositions for targeting selectins” (Arch Development Corporation, priority 1995, dated 1999)", "origin": "cited, not measured here", "tested_on": "selectin", "settings": "immobilized sle^x; read-out: concentration inhibiting selectin binding to sLe^x; cited from earlier work", "note": "At least one read-out could not be matched to a standard name with certainty.", "data": [{"smiles": "C[C@@H]1O[C@@H](O[C@H]2[C@H](O[C@H]3CC[C@@]4(C)[C@@H](CC[C@]5(C)[C@@H]4CC=C4[C@@H]6CC(C)(C)CC[C@]6(C(=O)O)CC[C@]45C)[C@]3(C)CO)OC[C@H](O)[C@@H]2O)[C@H](O)[C@H](O)[C@H]1O", "note": "[α-Hederin]", "values": [{"measurement": "IC50", "result": "2 to 3", "unit": "mM"}]}]}
